Source: PubChem BioAssay AID2685 (National Center for Advancing Translational Sciences (NCATS), 2010)
The other results are listed elsewhere or left out. Shown are side measurements of this screen, not its main read-out; they come without a call. Compounds called inactive in the main read-out are mostly missing here. Potencies come from curve fits of mixed quality, noted in brackets. Where a SMILES comes first, the peptide text is derived from it. The star is where a group is joined. Boc = CC(C)(C)OC(=O)*; OtBu = CC(C)(C)O*

Assay: qHTS Assay for Lipid Storage Modulators in Drosophila S3 Cells;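 as to cell number change: cells counted by Cell Tracker Red CMTPX staining in the red channel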
Conditions: BODIPY lipid droplet fluorescence, 18-24 h; for cell number change: measured here: cell count max response, cells fed with added oleic acid
Method in brief: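 Laser-scanning cytometry quantifies lipid droplet accumulation (500–530 nm total intensity; droplet/cell object ratio) in oleic acid-fed (400 uM added) Drosophila S3 cells treated with a concentration series. 20 uM Triacsin C defined 100% inhibition.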

[1] = measured here: lipid fluorescence (Fed channel) AC50, cells fed with added oleic acid
[2] = measured here: cell number channel AC50, cells fed with added oleic acid

SMILES | AC50 [1] | cell number change | AC50 [2]
COc1ccc(CCNC(=O)c2ccc3nc(-c4ccco4)c(-c4ccco4)nc3c2)cc1OC | 4.61 µM [falling, partial curve, poor fit] |  | 
NS(=O)(=O)c1ccc(CNC(=O)c2ccccc2SCC(=O)N2CCCC2)cc1 | 29.1 µM [rising, single point] | 15.8% | 
O=C(CCCCCNC(=S)Nc1ccc(Cl)cc1)C[N+](=O)[O-] | 0.116 µM [falling, single point] |  | 
O=S(=O)(/N=C/c1ccccc1O)c1cccs1 |  | 8.43% | 
COc1ccc(OC)c(NC(=O)C(C)SCc2nc3sc(C)c(C)c3c(=O)[nH]2)c1 (centres undefined) | 5.17 µM [falling, single point] | -13.1% | 6.51 µM [falling, single point]
CN(Cc1ccccc1)C(=O)c1[nH]cnc1C(=O)Nc1ccc(Cl)cc1 |  | -64.2% | 25.9 µM [falling, single point]
CCn1c(SC/C=C/c2ccccc2)nnc1-c1cnccn1 | 5.17 µM [rising, full curve] | 1.85% | 
CN(C)c1ccnc(-n2cccc2/C=N/OCc2ccccc2)c1C#N | 0.00411 µM [rising, full curve, poor fit] |  | 2.31 µM [rising, partial curve]
O=C(CCSc1ccccc1)Nc1nccs1 | 16.4 µM [rising, single point] | 17.5% | 
O=C(COC(=O)c1ccccc1O)Nc1ncc(Cl)cc1Cl | 0.411 µM [rising, partial curve, poor fit] | -10.7% | 
Cc1noc(C)c1COC(=O)c1ccc(F)c(S(=O)(=O)N2CCOCC2)c1 | 8.2 µM [rising, partial curve, poor fit] | 1% | 
COc1ccc(CC(=O)NC2CCCc3ccccc32)cc1 (centres undefined) |  |  | 0.164 µM [falling, full curve, poor fit]
O=C(COc1ccccc1Br)Nc1ccccc1C(F)(F)F |  | -32.5% | 29.1 µM [falling, single point]
CSc1ccc(/C=C(/NC(=O)c2ccco2)C(=O)N2CCOCC2)cc1 |  | -10.8% | 
Cc1ccc(C)c(C(=O)CC2(O)C(=O)N(C)c3ccccc32)c1 (centres undefined) |  | 1.25% | 
O=C(OCC(=O)C12CC3CC(CC(C3)C1)C2)c1cccnc1 |  | -19.6% | 
Cc1nn(-c2ccccc2)c(Cl)c1/C=N/NC(=O)c1nn(C)cc1[N+](=O)[O-] |  | -57.8% | 29.1 µM [falling, single point]
COc1ccc(CNC(=O)c2cc(C3CC3)nc3c2cnn3C(C)C)cc1OC | 10.3 µM [falling, partial curve] |  | 
COc1ccc(CN2CCC(n3nccc3NC(=O)C3CCCC3)CC2)cc1 |  | 3.47% | 
COc1ccc(C(=O)Nc2ccccc2C)cc1S(=O)(=O)N1CCOCC1 | 0.13 µM [falling, partial curve, poor fit] | 8.97% | 

Not a retest: entries from further up.
SMILES | AC50 [1] | cell number change | AC50 [2]
CN(Cc1ccccc1)C(=O)c1[nH]cnc1C(=O)Nc1ccc(Cl)cc1 |  | -64.2% | 25.9 µM [falling, single point]
CCn1c(SC/C=C/c2ccccc2)nnc1-c1cnccn1 | 5.17 µM [rising, full curve] | 1.85% | 

The listing continues:

SMILES | AC50 [1] | cell number change | AC50 [2]
c1cncc(-c2nn3c(Cn4cnc5ccccc54)nnc3s2)c1 | 0.13 µM [rising, full curve, poor fit] |  | 2.06 µM [rising, partial curve]
CCOc1ccc(NC(=O)Cn2ncc3ccccc32)cc1 |  | 27% | 
CN(Cc1ccccc1F)C(=O)c1ccc2c(=O)n3c(nc2c1)CCC3 |  | 33.7% | 11.6 µM [rising, partial curve]
CC(NC(=O)C(CC(=O)OC(C)(C)C)NC(=O)OC(C)(C)C)C(N)=O (centres undefined) (Boc-Asp(OtBu)-Ala-NH2; configuration not given here) | 4.61 µM [falling, full curve] | -35.2% | 4.11 µM [falling, full curve, poor fit]
CC(C)(C)NC(=O)C1CCN(C(=O)c2ccc(Br)cc2)CC1 |  | 11.1% | 
CCCSc1nnc(Cn2c(=O)sc3ccccc32)n1-c1ccccc1 |  | -8.34% | 
CCOC(=O)C1=C(CN2CCOCC2)NC(=O)NC1c1cccc([N+](=O)[O-])c1 (centres undefined) | 6.51 µM [falling, single point] | 12.6% | 
Cc1cccc(C)c1NC(=O)CN1N=NC2C(=O)N(c3cccc(Cl)c3)C(=O)C21 (centres undefined) | 0.00461 µM [falling, full curve, poor fit] | 11.4% | 
Cc1cc(C)c(S(=O)(=O)NCc2cn3c(C)csc3n2)c(C)c1 |  | -5.48% | 
Cc1cc(C)c2c(N)c(C(=O)c3ccc(Cl)cc3Cl)sc2n1 | 1.84 µM [rising, partial curve] | 22.6% | 
Cc1cccc(NC(=O)c2ccc(S(=O)(=O)N3CCC(C)CC3)cc2)n1 | 29.1 µM [falling, single point] | -13.6% | 
Cc1cc(=O)oc2cc(OCC(=O)N3CCN(C(=O)C4COc5ccccc5O4)CC3)c(Cl)cc12 (centres undefined) |  | -22.9% | 
Fc1ccc(-c2cnc[nH]2)cc1 |  | 34.4% | 11.6 µM [rising, single point]
O=C(c1cccs1)c1ccc(-c2cccs2)s1 | 4.61 µM [falling, full curve, poor fit] | -20.1% | 
Cc1ccc2nc(SCC(=O)NC3CCCC3)[nH]c2c1 | 3.26 µM [rising, partial curve] |  | 
COc1ccccc1N(CC(=O)NCc1ccccn1)S(C)(=O)=O | 0.651 µM [falling, partial curve, poor fit] | -24.1% | 0.651 µM [falling, full curve]
O=C1NC(c2ccco2)Nc2ccccc21 (centres undefined) | 0.146 µM [falling, full curve, poor fit] | 0.376% | 
Cc1cc(OCC(=O)OCC(=O)c2c(N)n(C)c(=O)n(C)c2=O)ccc1Cl | 18.4 µM [falling, partial curve] | -44.2% | 9.2 µM [falling, partial curve]
Cc1ccc(CNC(=O)C(C(=O)NCc2ccc(C)o2)c2ncc(C(F)(F)F)cc2Cl)o1 | 0.00461 µM [falling, full curve, poor fit] | -6.83% | 0.731 µM [falling, single point]
Cc1ccc(C(=O)NNC(=O)CSc2nnc3c(n2)[nH]c2ccc(C)cc23)cc1 |  | -29.4% | 
